Reference: doi:10.1101/2024.07.16.603715
These are yes or no findings as the source states them, for the method shown. In cells and extracts the contact can be indirect. A yes stands for co-enrichment or nearness to the bait. Other partners may have been found. For some of these results: A no says only that the protein was not detected with the bait. One block for each substance: values may come before it.

Protein sequences, listed by entry. Tags and fused reporters are not part of them. Lines headed by an entry give the natural chain unless they say otherwise; changes in a name come on top. Residues count along the entry.
UniProt P61215: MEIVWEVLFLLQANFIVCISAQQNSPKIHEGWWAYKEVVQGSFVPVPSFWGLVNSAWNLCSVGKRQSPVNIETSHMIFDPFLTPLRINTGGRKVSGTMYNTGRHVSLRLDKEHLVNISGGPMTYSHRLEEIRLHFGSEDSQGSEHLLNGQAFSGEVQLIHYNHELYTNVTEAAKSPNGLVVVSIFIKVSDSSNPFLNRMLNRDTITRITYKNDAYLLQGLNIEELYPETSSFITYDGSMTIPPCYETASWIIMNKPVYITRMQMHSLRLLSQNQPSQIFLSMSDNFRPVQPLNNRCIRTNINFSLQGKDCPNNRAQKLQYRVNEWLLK
UniProt Q9CS84, residues 31-1514: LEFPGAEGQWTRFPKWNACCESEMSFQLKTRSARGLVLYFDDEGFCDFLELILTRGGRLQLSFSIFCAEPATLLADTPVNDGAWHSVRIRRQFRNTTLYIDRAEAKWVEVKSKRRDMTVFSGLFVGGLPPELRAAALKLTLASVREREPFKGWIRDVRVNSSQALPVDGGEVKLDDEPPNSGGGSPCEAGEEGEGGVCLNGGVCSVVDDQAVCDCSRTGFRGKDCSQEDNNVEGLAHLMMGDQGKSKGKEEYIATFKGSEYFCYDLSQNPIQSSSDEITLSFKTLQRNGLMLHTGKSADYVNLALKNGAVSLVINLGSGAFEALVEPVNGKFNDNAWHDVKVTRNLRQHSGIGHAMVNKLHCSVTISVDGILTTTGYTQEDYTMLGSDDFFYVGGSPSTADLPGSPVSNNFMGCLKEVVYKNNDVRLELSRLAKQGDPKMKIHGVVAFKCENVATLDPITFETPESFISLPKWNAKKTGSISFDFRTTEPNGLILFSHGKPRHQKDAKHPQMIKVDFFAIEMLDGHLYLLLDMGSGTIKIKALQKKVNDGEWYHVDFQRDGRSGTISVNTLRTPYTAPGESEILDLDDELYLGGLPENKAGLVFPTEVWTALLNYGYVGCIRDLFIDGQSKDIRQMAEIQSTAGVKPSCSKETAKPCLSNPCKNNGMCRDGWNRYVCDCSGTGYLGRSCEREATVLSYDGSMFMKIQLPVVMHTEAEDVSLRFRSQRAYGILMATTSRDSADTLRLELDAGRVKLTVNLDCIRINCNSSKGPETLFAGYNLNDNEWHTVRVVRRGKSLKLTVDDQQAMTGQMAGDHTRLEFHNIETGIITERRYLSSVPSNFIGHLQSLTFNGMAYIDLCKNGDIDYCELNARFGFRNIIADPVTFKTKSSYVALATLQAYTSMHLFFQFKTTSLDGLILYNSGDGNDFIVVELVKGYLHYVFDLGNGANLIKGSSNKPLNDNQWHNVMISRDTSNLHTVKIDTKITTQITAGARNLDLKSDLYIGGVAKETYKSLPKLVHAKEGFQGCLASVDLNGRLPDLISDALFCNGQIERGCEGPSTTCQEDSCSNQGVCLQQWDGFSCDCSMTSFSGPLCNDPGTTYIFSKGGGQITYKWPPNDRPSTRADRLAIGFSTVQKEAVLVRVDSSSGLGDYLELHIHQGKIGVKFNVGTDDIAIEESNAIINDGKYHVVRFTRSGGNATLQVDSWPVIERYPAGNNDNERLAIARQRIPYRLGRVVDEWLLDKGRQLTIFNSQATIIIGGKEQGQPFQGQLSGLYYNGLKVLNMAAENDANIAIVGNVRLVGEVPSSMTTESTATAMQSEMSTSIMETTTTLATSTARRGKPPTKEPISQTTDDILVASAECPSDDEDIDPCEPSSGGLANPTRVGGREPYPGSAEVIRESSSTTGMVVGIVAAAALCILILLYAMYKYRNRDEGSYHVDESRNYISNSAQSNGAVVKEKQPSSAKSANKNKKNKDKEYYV
UniProt E9Q7X7, residues 29-1710: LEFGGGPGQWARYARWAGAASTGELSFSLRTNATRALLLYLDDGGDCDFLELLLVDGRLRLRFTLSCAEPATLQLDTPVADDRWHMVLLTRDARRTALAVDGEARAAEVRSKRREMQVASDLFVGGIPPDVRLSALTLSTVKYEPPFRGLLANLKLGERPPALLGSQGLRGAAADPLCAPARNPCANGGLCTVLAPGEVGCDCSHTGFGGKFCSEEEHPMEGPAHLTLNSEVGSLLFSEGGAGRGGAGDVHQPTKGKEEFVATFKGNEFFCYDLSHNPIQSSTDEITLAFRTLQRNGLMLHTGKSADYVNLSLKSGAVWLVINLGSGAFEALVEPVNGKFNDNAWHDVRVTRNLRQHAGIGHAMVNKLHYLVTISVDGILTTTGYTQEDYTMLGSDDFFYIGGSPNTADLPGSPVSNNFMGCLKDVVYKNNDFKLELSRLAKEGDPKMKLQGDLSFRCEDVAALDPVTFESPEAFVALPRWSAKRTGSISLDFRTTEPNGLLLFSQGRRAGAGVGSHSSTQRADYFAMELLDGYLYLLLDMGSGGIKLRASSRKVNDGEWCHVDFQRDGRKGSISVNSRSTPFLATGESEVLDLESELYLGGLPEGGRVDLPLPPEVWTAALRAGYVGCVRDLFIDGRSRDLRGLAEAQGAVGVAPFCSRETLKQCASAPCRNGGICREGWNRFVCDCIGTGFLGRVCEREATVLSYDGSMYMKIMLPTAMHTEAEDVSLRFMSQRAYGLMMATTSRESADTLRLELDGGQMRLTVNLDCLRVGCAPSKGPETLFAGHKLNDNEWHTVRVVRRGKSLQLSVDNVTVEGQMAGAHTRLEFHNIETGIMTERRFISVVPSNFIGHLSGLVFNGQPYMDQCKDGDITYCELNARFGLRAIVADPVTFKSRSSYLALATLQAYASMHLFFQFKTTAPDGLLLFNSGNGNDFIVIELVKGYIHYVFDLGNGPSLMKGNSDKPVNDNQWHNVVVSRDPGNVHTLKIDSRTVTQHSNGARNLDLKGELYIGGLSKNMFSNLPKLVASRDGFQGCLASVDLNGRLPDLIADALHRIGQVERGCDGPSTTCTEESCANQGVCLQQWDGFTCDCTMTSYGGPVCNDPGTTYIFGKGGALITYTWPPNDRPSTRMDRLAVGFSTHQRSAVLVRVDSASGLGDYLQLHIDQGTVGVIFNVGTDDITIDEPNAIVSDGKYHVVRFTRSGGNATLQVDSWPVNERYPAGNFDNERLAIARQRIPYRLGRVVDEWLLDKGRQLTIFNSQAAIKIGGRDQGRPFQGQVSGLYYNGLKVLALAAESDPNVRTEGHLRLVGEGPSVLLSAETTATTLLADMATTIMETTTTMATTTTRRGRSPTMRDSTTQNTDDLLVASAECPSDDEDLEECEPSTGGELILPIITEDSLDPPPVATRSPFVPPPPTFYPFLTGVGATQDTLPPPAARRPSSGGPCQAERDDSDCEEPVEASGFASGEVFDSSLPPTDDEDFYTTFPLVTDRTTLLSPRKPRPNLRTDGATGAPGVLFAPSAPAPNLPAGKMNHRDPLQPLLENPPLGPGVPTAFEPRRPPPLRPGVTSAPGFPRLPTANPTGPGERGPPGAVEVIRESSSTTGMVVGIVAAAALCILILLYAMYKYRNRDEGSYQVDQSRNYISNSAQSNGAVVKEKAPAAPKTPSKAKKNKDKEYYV
UniProt Q6P9K9, residues 28-1571: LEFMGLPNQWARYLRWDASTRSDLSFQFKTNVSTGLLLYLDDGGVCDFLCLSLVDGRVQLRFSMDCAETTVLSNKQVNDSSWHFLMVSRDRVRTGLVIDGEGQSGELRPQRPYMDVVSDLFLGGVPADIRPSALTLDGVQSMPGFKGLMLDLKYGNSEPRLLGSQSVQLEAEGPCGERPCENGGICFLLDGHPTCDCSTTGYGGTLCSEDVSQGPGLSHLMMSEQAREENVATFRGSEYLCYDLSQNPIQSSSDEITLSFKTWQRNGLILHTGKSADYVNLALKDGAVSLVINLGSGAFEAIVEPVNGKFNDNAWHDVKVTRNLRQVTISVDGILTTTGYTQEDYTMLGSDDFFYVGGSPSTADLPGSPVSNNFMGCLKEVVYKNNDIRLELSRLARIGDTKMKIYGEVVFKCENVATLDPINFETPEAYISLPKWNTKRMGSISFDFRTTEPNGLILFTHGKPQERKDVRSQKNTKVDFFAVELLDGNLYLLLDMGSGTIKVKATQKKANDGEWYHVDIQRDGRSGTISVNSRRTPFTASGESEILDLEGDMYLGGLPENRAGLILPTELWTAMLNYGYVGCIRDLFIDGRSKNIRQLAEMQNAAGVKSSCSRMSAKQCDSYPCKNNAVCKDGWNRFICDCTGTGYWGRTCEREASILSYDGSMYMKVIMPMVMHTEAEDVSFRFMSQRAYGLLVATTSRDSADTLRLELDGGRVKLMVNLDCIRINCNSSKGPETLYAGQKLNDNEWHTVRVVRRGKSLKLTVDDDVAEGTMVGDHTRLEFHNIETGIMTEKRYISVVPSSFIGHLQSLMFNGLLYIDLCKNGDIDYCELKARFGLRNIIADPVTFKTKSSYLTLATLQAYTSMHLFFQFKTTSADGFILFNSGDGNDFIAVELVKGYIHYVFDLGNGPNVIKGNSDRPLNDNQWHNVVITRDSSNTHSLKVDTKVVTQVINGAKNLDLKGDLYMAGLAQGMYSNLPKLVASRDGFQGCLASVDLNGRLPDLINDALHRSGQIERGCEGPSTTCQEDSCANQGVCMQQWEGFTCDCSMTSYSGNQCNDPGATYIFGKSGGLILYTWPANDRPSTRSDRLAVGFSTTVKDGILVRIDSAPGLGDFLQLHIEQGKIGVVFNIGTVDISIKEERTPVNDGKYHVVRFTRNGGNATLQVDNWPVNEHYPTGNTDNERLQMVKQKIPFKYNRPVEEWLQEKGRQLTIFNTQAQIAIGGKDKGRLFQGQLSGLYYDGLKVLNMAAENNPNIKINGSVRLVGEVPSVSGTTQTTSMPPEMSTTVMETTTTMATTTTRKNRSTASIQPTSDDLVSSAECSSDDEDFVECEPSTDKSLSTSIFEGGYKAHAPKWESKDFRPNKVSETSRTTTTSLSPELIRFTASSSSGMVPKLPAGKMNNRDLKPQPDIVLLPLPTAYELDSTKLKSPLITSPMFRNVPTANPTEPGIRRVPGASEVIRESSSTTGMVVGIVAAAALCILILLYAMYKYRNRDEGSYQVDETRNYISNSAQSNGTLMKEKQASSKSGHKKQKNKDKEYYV
UniProt D3Z7H4: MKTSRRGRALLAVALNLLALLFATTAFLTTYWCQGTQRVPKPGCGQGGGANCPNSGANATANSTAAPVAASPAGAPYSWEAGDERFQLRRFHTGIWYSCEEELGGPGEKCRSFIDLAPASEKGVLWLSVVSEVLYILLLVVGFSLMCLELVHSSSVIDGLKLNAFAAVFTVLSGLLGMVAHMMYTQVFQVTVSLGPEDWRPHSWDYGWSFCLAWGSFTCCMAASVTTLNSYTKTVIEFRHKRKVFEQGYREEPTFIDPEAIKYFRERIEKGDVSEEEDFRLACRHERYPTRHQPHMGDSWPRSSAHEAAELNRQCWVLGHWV
UniProt O88998, residues 17-485: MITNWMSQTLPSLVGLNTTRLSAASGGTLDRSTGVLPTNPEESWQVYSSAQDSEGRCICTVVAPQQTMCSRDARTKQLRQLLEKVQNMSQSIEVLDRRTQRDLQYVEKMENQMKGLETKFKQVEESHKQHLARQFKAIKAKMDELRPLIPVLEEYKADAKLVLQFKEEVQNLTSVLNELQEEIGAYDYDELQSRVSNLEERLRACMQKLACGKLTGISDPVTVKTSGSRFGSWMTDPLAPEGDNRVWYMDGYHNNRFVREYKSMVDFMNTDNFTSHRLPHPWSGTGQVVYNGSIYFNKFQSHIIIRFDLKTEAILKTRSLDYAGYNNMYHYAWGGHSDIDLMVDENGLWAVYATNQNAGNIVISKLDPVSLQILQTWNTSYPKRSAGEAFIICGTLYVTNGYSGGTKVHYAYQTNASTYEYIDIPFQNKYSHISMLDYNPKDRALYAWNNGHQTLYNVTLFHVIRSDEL
UniProt E9Q6C8: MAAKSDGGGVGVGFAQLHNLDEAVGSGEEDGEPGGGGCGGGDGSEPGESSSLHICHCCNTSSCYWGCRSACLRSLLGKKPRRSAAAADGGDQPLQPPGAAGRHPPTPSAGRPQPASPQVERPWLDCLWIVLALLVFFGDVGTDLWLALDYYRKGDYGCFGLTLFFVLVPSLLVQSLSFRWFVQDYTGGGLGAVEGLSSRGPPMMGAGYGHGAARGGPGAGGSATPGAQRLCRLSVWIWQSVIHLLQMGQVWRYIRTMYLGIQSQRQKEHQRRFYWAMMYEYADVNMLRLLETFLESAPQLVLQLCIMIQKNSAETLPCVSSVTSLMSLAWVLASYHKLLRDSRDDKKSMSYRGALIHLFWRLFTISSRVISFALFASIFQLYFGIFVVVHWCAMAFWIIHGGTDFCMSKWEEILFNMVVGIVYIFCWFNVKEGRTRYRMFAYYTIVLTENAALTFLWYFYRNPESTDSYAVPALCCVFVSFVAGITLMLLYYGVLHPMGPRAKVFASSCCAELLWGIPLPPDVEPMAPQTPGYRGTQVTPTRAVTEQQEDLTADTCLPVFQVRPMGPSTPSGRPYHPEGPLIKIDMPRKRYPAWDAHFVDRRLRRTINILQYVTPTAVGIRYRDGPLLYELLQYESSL

Assays:
Assay in all cases: affinity purification with mass spectrometry
[1] = target: carbonic anhydrase-related protein 10 (CAH10) (mouse (endogenous in adult mouse brain)) (UniProt P61215)
[2] = target: receptor protein tyrosine phosphatase S (PTPRS) (mouse (endogenous in adult mouse brain)) (UniProt B0V2N1)
[3] = target: neurexin 1 (NRX1) (mouse (endogenous in adult mouse brain)) (UniProt Q9CS84)
[4] = target: neurexin 2 (NRX2) (mouse (endogenous in adult mouse brain)) (UniProt E9Q7X7)
[5] = target: neurexin 3 (NRX3) (mouse (endogenous in adult mouse brain)) (UniProt Q6P9K9)
[6] = target: PTPRS (cultured neurons) (rat (endogenous in cultured neurons)) (UniProt Q64605)
[7] = target: T1, leucine-rich repeat transmembrane neuronal protein 4 (LRRT4) (mouse (endogenous in adult mouse brain)) (UniProt Q80XG9)
T1 sequence: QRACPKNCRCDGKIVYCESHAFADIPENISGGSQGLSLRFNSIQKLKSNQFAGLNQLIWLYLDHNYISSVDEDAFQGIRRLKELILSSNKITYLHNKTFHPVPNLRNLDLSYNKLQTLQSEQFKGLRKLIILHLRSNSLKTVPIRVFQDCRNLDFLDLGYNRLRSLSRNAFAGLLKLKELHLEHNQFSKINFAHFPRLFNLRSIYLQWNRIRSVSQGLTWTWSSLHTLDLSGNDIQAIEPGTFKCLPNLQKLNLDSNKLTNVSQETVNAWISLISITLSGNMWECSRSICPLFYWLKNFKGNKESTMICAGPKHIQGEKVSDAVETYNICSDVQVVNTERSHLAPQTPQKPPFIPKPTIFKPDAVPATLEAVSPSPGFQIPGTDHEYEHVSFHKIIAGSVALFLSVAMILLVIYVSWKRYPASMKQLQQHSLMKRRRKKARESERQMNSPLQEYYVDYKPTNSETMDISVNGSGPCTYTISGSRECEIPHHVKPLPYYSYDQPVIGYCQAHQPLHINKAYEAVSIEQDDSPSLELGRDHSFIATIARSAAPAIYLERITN

[8] = target: T2, neurexophilin 3 (NXPH3) (mouse (endogenous in adult mouse brain)) (UniProt Q91VX5)
T2 sequence: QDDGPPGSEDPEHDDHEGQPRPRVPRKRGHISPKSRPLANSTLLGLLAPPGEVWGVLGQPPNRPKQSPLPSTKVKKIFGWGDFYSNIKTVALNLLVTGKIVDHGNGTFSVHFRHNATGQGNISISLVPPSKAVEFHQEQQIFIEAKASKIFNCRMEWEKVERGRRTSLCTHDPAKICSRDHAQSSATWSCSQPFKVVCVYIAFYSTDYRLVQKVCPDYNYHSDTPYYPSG

Substance: AMPAR subunit GRIA3 (from UniProt Q9Z2W9 23-888)
- binding [1]: binds
- binding [2]: binds

Substance: neurexin 3 (NRX3) (from UniProt Q6P9K9 28-1571)
- binding [3]: no binding
- binding [4]: no binding
- binding [2]: binds

Substance: SYT11 (cultured neurons) (from UniProt O08835 1-430)
- binding [6]: binds

Substance: Cav2.2 (CAC1B) (from UniProt O55017 1-2327)
- binding [2]: binds

Substance: GSG1l (from UniProt D3Z7H4 1-322)
- binding [1]: binds
- binding [7]: binds
- binding [2]: binds

Substance: NOE1 (from UniProt O88998 17-485)
- binding [1]: binds
- binding [2]: binds

Substance: tetraspanin T178B (mouse (endogenous in adult mouse brain))
- binding [7]: binds
- binding [8]: binds

Substance: liprin-α2 (LIPA2) (from UniProt Q8BSS9 1-1257)
- binding [2]: binds

Now from value to substance:

- binding [3]: no binding
- binding [5]: no binding
- binding [2]: binds
Substance: neurexin 2 (NRX2) (from UniProt E9Q7X7 29-1710)

- binding [4]: no binding
- binding [5]: no binding
- binding [2]: binds
Substance: neurexin 1 (NRX1) (from UniProt Q9CS84 31-1514)

- binding [3]: binds
- binding [4]: binds
- binding [5]: binds
Substance: XK-related protein 6 (XKR6) (from UniProt E9Q6C8 1-638)

- binding [2]: binds
Substance: carbonic anhydrase-related protein 10 (CAH10) (from UniProt P61215)
